Values of other authors as cited in publication PMC6061170, “Synthesis and biological investigations of 3β-aminotropane arylamide derivatives with atypical antipsychotic profile” (Medicinal Chemistry Research, 2018).

Target: D2
Settings: read-out: D2 Ki; ref Schmidt et al. 2001; cited from earlier work

For OCCOCCN1CCN(C2=Nc3ccccc3Sc3ccccc32)CC1 [Quetiapine], the Ki is listed as 180 nM.
